Data from publication doi:10.1101/2024.05.08.593233.
No constants are given. Whether binding was seen depends on the method and setting. In cells and extracts the contact can be indirect. Some binding calls cover weakened binding; strength is not graded here. Where a sequence is shown, tags or fusion partners need not be part of it.

Assays:
Assay in all cases: co-IP
[1] = biological target: T1, 3×FLAG-Rubicon (1–566, 626–972) (human) (UniProt Q92622)
T1 sequence: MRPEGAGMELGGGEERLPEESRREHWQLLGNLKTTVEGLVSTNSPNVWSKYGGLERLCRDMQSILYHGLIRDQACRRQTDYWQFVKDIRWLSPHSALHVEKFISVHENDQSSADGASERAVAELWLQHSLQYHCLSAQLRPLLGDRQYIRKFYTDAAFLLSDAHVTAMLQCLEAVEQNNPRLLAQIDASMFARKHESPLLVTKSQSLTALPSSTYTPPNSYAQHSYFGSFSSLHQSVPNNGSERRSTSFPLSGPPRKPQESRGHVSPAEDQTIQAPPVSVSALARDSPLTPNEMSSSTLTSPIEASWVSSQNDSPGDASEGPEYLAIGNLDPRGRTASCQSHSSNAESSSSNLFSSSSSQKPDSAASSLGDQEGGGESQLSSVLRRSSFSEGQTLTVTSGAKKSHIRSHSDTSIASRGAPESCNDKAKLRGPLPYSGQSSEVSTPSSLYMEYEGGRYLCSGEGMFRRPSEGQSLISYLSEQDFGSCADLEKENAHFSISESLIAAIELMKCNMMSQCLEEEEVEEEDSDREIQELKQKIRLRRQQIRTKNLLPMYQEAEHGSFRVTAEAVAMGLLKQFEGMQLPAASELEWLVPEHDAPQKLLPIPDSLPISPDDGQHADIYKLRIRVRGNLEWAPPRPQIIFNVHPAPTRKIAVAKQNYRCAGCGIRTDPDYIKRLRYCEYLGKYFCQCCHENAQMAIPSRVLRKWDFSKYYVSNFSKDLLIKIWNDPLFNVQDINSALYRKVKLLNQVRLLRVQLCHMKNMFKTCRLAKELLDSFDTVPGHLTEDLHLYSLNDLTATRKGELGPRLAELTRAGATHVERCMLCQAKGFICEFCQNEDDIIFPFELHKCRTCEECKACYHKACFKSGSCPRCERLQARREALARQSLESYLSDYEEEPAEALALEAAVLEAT

[2] = biological target: T2, 3×FLAG-Rubicon (1–203, 448–972) (human) (UniProt Q92622)
T2 sequence: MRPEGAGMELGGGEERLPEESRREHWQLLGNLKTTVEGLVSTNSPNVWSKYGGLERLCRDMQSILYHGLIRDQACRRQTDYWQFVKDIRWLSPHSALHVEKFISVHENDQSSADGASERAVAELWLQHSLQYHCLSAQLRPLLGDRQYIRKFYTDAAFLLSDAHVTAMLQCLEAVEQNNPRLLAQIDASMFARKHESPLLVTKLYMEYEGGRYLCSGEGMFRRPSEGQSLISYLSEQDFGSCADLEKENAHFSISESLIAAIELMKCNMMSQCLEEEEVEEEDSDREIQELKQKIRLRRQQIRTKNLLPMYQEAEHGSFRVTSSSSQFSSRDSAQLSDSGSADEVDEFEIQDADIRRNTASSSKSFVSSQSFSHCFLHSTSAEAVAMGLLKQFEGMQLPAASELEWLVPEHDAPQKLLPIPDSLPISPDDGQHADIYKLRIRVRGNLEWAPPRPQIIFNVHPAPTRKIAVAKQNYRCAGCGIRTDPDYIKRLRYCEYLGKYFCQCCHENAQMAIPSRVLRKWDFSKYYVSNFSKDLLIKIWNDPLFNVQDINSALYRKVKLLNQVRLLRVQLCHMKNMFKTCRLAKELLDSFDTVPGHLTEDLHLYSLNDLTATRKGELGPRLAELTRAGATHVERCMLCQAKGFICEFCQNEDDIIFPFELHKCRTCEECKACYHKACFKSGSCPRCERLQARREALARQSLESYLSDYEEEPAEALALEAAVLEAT

[3] = biological target: T3, 3×FLAG-Rubicon (1–972) (human) (UniProt Q92622)
T3 sequence: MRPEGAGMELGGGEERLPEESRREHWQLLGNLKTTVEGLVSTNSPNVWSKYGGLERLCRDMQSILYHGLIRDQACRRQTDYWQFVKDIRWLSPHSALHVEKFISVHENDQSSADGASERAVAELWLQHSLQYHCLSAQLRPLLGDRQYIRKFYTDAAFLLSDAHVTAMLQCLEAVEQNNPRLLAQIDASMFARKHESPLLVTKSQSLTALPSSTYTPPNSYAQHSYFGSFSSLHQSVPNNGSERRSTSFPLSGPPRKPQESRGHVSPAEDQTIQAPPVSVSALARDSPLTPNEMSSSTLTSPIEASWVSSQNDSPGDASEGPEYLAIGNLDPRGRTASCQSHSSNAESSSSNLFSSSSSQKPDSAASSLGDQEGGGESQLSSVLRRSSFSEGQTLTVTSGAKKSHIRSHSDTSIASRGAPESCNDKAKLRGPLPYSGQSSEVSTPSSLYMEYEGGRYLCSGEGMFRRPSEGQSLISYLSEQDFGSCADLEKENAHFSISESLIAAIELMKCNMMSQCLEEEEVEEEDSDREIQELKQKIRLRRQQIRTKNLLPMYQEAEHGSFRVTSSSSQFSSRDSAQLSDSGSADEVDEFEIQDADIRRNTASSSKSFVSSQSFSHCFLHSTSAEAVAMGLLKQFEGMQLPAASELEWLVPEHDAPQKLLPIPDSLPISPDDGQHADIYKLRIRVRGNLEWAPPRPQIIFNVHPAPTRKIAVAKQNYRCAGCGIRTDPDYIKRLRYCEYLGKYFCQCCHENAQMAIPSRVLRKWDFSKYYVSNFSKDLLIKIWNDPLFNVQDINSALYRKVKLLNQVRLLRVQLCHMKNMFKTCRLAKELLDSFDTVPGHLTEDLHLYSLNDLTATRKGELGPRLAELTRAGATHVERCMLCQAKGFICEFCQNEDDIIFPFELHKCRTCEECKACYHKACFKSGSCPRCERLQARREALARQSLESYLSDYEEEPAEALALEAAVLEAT

Measured: binding

B1: HA-WIPI2d (protein, UniProt Q9Y4P8-2 1-425)
chain: MNLASQSGEAGAGQLLFANFNQDNTSLAVGSKSGYKFFSLSSVDKLEQIYECTDTEDVCIVERLFSSSLVAIVSLKAPRKLKVCHFKKGTEICNYSYSNTILAVKLNRQRLIVCLEESLYIHNIRDMKVLHTIRETPPNPAGLCALSINNDNCYLAYPGSATIGEVQVFDTINLRAANMIPAHDSPLAALAFDASGTKLATASEKGTVIRVFSIPEGQKLFEFRRGVKRCVSICSLAFSMDGMFLSASSNTETVHIFKLETVKEKPPEEPTTWTGYFGKVLMASTSYLPSQVTEMFNQGRAFATVRLPFCGHKNICSLATIQKIPRLLVGAADGYLYMYNLDPQEGGECALMKQHRLDGSLETTNEILDSASHDCPLVTQTYGAAAGKAYTDDLGAVGGACLEDEASALRLDEDSEHPPMILRTD
binds: [1] | [2] | [3]

B2: endogenous WIPI2 (HEK293T) (protein, UniProt Q9Y4P8 1-454)
chain: MNLASQSGEAGAGQLLFANFNQDNTEVKGASRAAGLGRRAVVWSLAVGSKSGYKFFSLSSVDKLEQIYECTDTEDVCIVERLFSSSLVAIVSLKAPRKLKVCHFKKGTEICNYSYSNTILAVKLNRQRLIVCLEESLYIHNIRDMKVLHTIRETPPNPAGLCALSINNDNCYLAYPGSATIGEVQVFDTINLRAANMIPAHDSPLAALAFDASGTKLATASEKGTVIRVFSIPEGQKLFEFRRGVKRCVSICSLAFSMDGMFLSASSNTETVHIFKLETVKEKPPEEPTTWTGYFGKVLMASTSYLPSQVTEMFNQGRAFATVRLPFCGHKNICSLATIQKIPRLLVGAADGYLYMYNLDPQEGGECALMKQHRLDGSLETTNEILDSASHDCPLVTQTYGAAAGKGTYVPSSPTRLAYTDDLGAVGGACLEDEASALRLDEDSEHPPMILRTD
binds: [1] | [2] | [3]
